{"source": "patent US8168669B2", "about": "“Therapeutic agent for inflammatory bowel disease and TNF-α production inhibitor” (Ajinomoto Co., Inc., priority 2005, dated 2012)", "test_system": "colitis in Scid mice injected with cells of IL-10 deficient Balb/c mice", "assay": "Therapeutic effect on inflammatory bowel disease: colon weight in cell-transfer colitis mice fed experimental diet", "type": "in vivo, mouse", "conditions": "5% in standard chow, three weeks after cell transfer", "method": "Balb/c background IL-10 deficient mice were established from C57BL/6 background IL-10 deficient mice by back-crossing for seventh generations. […] Spleen, mesenteric lymph nodes and sacral lymph nodes were collected from the IL-10 gene-deficient Balb/c mice (male) which had developed the colitis detected by observing the diarrhea symptoms. After preparing single cell suspensions, the cells at about 1×10^7 were injected intraperitoneally to Scid mice which were immunodeficiency mice (hereinafter the Scid mouse injected IP was referred to as an “experiment mouse”). Subsequently, a chow was changed to an experimental diet. At a time point three weeks after cell transfer, the mice were killed, the colon was collected, the intestinal contents were washed out, and its weight was measured. A percentage of inhibiting a weight gain of the colon was calculated by the following formula. Percentage of inhibiting a weight gain of colon=[1−(Colon weight in target group−Colon weight in cell transfer group)/(Colon weight in standard chow group−Colon weight in cell transfer group)]×100(%)\nAn amino acid mixture A is composed of the following amino acids (% by weight is represented in terms of free amino acid).", "note": "At least one read-out could not be matched to a standard name with certainty."}
{"molecule": "N[C@@H](Cc1c[nH]c2ccccc12)C(=O)O", "note": "[Example 6, tryptophan]", "values": [{"measurement": "Colon weight Mean", "value": 236.7}, {"measurement": "Colon weight Mean", "setting": "listed as Example 15", "value": 262.1}, {"measurement": "Rate of inhibiting weight gain of colon (%)", "setting": "listed as Example 15", "value": 84.9, "unit": "%"}]}
